Data as given in PubChem BioAssay AID1259273 (Sanger Institute, 2017).

- Purpose: 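Kinases whose loss is synthetic lethal with BYL719, cetuximab or trametinib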 (follow-up of hits)
- Cell system: human NCI-H630 colorectal cancer cells
- Reagents: single siRNA against human genes
- Challenge: anchor drugs BYL719 at 1 µM, cetuximab at 5 µg/ml or trametinib at 10 nM, or DMSO vehicle alone
- Read-out: 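Viability relative to wells given a non-targeting control pool; synergy score for each anchor drug, weighing combined effect against siRNA only and drug only; replicate means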
- Scale: synergy score with trametinib and synergy score with BYL719 and synergy score with cetuximab: higher = stronger synergy, more synthetic lethal
- Rule for the call: 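Called synergistic (synthetic lethal) when the mean synergy score is above 0.10 for one or more of the three anchor drugs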
Shown is one part, drawn at random, of 160 reagents tested. Over the whole deposit, 36 (22%) are marked active. 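Four distinct siRNA duplexes per gene; each call applies to one duplex and is not gene-level validation across cell lines.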 A number with no mark means an inactive call. Reagents against one gene are numbered here. Further read-outs or replicates are left out here. No sequences are given here. Not given: the amount of reagent, the time to read-out.

SYNCRIP #1
- synergy score with trametinib: 0.0538
- synergy score with BYL719: -0.265
- synergy score with cetuximab: -0.0464

SYNCRIP #2
- synergy score with trametinib: -0.0481
- synergy score with BYL719: -0.146
- synergy score with cetuximab: -0.178

SYNCRIP #3
- synergy score with trametinib: 0.0104
- synergy score with BYL719: -0.0912
- synergy score with cetuximab: -0.083

SYNCRIP #4
- synergy score with trametinib: 0.0325
- synergy score with BYL719: -0.0285
- synergy score with cetuximab: -0.128

GTF2H1 #1
- synergy score with trametinib: -0.0289
- synergy score with BYL719: -0.0595
- synergy score with cetuximab: -0.0449

GTF2H1 #2
- synergy score with trametinib: -0.0105
- synergy score with BYL719: -0.146
- synergy score with cetuximab: 0.0329

GTF2H1 #3
- synergy score with trametinib: -0.068
- synergy score with BYL719: -0.131
- synergy score with cetuximab: -0.0801

GTF2H1 #4
- synergy score with trametinib: 0.11 (active)
- synergy score with BYL719: 0.00378
- synergy score with cetuximab: 0.0414

Single entries from the entries so far.
Value for GTF2H1 #3 under “synergy score with BYL719”: -0.131
Result of GTF2H1 #4 in “synergy score with cetuximab”: 0.0414 (active)
SYNCRIP #3, synergy score with BYL719: -0.0912
Value for GTF2H1 #1 under “synergy score with cetuximab”: -0.0449

Additional reagents:
PIM1 #1
- synergy score with trametinib: -0.0273
- synergy score with BYL719: -0.00646
- synergy score with cetuximab: 0.0129

PIM1 #2
- synergy score with trametinib: 0.0619
- synergy score with BYL719: -0.087
- synergy score with cetuximab: -0.0536

PIM1 #3
- synergy score with trametinib: -0.103
- synergy score with BYL719: -0.0795
- synergy score with cetuximab: -0.157

PIM1 #4
- synergy score with trametinib: -0.103
- synergy score with BYL719: -0.146
- synergy score with cetuximab: -0.021

MAPKAPK2 #1
- synergy score with trametinib: -0.000962
- synergy score with BYL719: -0.0426
- synergy score with cetuximab: 0.0186

MAPKAPK2 #2
- synergy score with trametinib: -0.103
- synergy score with BYL719: -0.146
- synergy score with cetuximab: -0.147

MAPKAPK2 #3
- synergy score with trametinib: -0.103
- synergy score with BYL719: -0.146
- synergy score with cetuximab: -0.0586

MAPKAPK2 #4
- synergy score with trametinib: -0.103
- synergy score with BYL719: -0.146
- synergy score with cetuximab: -0.0552

GRK5 #1
- synergy score with trametinib: -0.103
- synergy score with BYL719: -0.146
- synergy score with cetuximab: -0.179

GRK5 #2
- synergy score with trametinib: -0.103
- synergy score with BYL719: -0.146
- synergy score with cetuximab: -0.23

GRK5 #3
- synergy score with trametinib: 0.145 (active)
- synergy score with BYL719: -0.101
- synergy score with cetuximab: -0.065

GRK5 #4
- synergy score with trametinib: 0.0871
- synergy score with BYL719: -0.136
- synergy score with cetuximab: 0.0819

GUCY2D #1
- synergy score with trametinib: 0.0642
- synergy score with BYL719: -0.138
- synergy score with cetuximab: 0.018

GUCY2D #2
- synergy score with trametinib: 0.151 (active)
- synergy score with BYL719: 0.0235
- synergy score with cetuximab: 0.0108

GUCY2D #3
- synergy score with trametinib: 0.171 (active)
- synergy score with BYL719: 0.0129
- synergy score with cetuximab: -0.103

GUCY2D #4
- synergy score with trametinib: 0.0631
- synergy score with BYL719: -0.0857
- synergy score with cetuximab: -0.23
